About 22,000 (6.9%) of roughly 320,000 compounds were called active. This list was built around the results that the source calls inconclusive (neither active nor inactive); the mix of calls is not that of the screen. The call rests on the fitted dose curve; in most records, active means well fitted inhibition curve with a large enough effect; inconclusive means small, poorly fitted or top-dose-only effect, or another doubt; inactive means no such curve, though single readings can be large or run the other way. Potencies of inconclusive entries are doubtful fits and often do not repeat.
Test: Primary qHTS for delayed death inhibitors of the malarial parasite plastid, 96 hour incubation
Conditions: P. falciparum luciferase reporter growth; series mostly up to 28.7 µM
In short: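 Erythrocytes infected with luciferase-expressing P. falciparum were dispensed at 2% hematocrit and 0.05% parasitemia (final), then incubated with compounds 96 hours at 37 C in 5% CO2. Luminescence after detection reagent addition reported growth.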
Potency means the concentration at half of the fitted maximal effect.

SMILES | Potency
CN1C(=O)c2ccc(NC(=O)c3cccc(N4C(=O)CCC4=O)c3)cc2C1=O | inactive
COc1cccc(-c2nnn(CCc3nn[nH]n3)n2)c1 | inconclusive: 18.5 µM [inhibitor, single point]
O=C(NN1CCOCC1)c1ccccc1Br | inconclusive: 4.15 µM [inhibitor, single point]
FC(F)(F)c1cccc(Cc2noc(CN3CCCCC3c3ccccn3)n2)c1 (stereo not given) | inconclusive: 1.47 µM [inhibitor, partial curve, poor fit]
O=C(NC1CCCCC1)C(c1ccc2ncccc2c1)N(Cc1ccc(F)cc1)C(=O)c1cccs1 (stereo not given) | active: 10.4 µM
COc1ccccc1-c1sc2cc3c(cc2c1C#Cc1ccccn1)OCO3 | inconclusive: 2.94 µM [inhibitor, single point]
Cc1ccc(Cl)c(OC(=O)c2nn(C(C)C)c(=O)c3ccccc23)c1 | inconclusive: 0.928 µM [inhibitor, partial curve, poor fit]
CCOc1ccccc1-c1ccc(C(=O)NCc2ccccc2)o1 | active: 7.38 µM
COCC(C)n1c(C)cc(C(=O)CN2C(=O)NC(Cc3c[nH]c4ccccc34)C2=O)c1C (stereo not given) | active: 5.22 µM
C=CCNCCOCCOc1ccc(Cl)cc1C(C)(C)C | inconclusive: 18.5 µM [inhibitor, single point]
CCCCNC(=O)CCCCC(=O)N/N=C/c1cccc(Cl)c1 | inconclusive: 3.7 µM [inhibitor, partial curve, poor fit]
COc1cccc2c1OCC(C(=O)NCc1ccc(Cl)cc1Cl)=C2 | inconclusive: 4.15 µM [inhibitor, single point]
CN(C)CCSc1nc(-c2ccccc2)nc2c1CCCC2 | inconclusive: 10.4 µM [inhibitor, partial curve, poor fit]
CC(C)[C@H](NC(=O)c1ccccc1)C(=O)Nc1cccc(S(=O)(=O)N2CCOCC2)c1 | inconclusive: 11.7 µM [inhibitor, single point]
O=C(NCc1ccc(OC(F)(F)F)cc1)C1CC(c2cccc(F)c2)=NO1 (stereo not given) | inactive
COc1ccc(NC(C)c2ccccc2)cc1 (stereo not given) | inconclusive: 18.5 µM [inhibitor, single point]
CS(=O)(=O)N(CC(=O)N1CCN(C(c2ccccc2)c2ccccc2)CC1)C1CCCCC1 | active: 2.62 µM
Nc1nc(-c2ccc(Oc3ccccc3)cc2)cs1 | inconclusive: 18.5 µM [inhibitor, single point]
CCOc1cc(/C=N/NC(=O)c2ccccn2)ccc1OC(=O)c1cccs1 | active: 9.28 µM
Cc1ccc(C(=O)C2CCN(CC(=O)Nc3ccccc3C)CC2)cc1 | inactive
CCCc1cc(=O)oc2cc(OCC(=O)Nc3ccc(CN4CCOCC4)cc3)c(Cl)cc12 | active: 10.4 µM
COc1ccc2cc(/C=N/NC(=O)c3ccc(CN(c4cccc(Cl)c4Cl)S(C)(=O)=O)cc3)c(Cl)nc2c1 | inconclusive: 18.5 µM [inhibitor, partial curve, poor fit]
O=C1N/C(=N\N=C\c2ccco2)SC1Cc1ccccc1[N+](=O)[O-] (stereo not given) | inconclusive: 1.65 µM [inhibitor, full curve]
C=CCn1c(SCC(=O)NC2CCCC2)nnc1-c1ccccn1 | inactive

SMILES | Potency
O=C(CCS(=O)(=O)c1ccccc1Cl)Nc1ccc(S(=O)(=O)Nc2ncccn2)cc1 | inconclusive: 1.31 µM [inhibitor, partial curve]
O=C(NN1CCOCC1)c1cc(S(=O)(=O)Nc2cccc(C(F)(F)F)c2)ccc1Cl | inactive
COc1cc(/C=N/NC(=O)C(=O)/C=C2\NC3(CCCC3)Cc3ccccc32)ccc1O | inconclusive: 10.4 µM [inhibitor, single point]
COc1cccc(CNC(=O)CCCCCn2c(=S)[nH]c3ccc(N4CCOCC4)cc3c2=O)c1 | inconclusive: 9.28 µM [inhibitor, partial curve, poor fit]
COc1ccc(/C=N/N(C(C)=O)c2nc(-c3ccc(C)cc3)cs2)cc1 | inconclusive: 2.62 µM [inhibitor, full curve]
O=C(Cn1cnc2ccccc2c1=O)NCCC(=O)N1CCN(Cc2ccccc2)CC1 | inconclusive: 7.38 µM [inhibitor, partial curve, poor fit]
Cc1cccc(S(=O)(=O)c2c(N)n(Cc3ccco3)c3nc4ccccc4nc23)c1 | inactive
COc1ccc(C)cc1S(=O)(=O)Nc1ccc2c(c1)N(C(C)=O)CCC2 | inconclusive: 11.7 µM [inhibitor, partial curve]
CCN(CC(=O)NCC(=O)Nc1ccc(Br)cc1C)Cc1ccccc1 | inactive
Cc1cc(SCC(=O)N/N=C/c2ccc(O)c(O)c2)c(C)cc1Br | inconclusive: 0.262 µM [inhibitor, full curve, poor fit]
CCC(CC)CN1C(Nc2ccccc2)=NC[C@@H]1CC(C)C | inactive
COc1cccc(OCc2cc(C(=O)NCC3CCCCC3)no2)c1 | active: 11.7 µM
Cc1cc(C)n(C(=O)C(C)N2C(=O)c3ccccc3C2=O)n1 (stereo not given) | inactive
O=S(=O)(NN1CCOCC1)c1ccc(Cl)s1 | inconclusive: 3.7 µM [inhibitor, partial curve, poor fit]
O=C(Nc1ccc(F)cc1F)c1cccn(Cc2ccccc2)c1=O | inactive
Cc1ccc2oc(=O)c3cnn(CC(=O)Nc4ccccc4N4CCN(C)CC4)c3c2c1 | inconclusive: 18.5 µM [inhibitor, partial curve, poor fit]
Cc1cc(=O)[nH]c2c(N=Nc3ccc(O)cc3)c(N)nn12 | inactive
O=C(/C=C/c1ccc(Cl)cc1Cl)c1cccnc1 | inconclusive: 0.0828 µM [inhibitor, full curve, poor fit]
CCCCCCCCCCCCCCCC[n+]1ccccc1 | active: 1.51 µM
O=C(c1ccco1)N1CCN(C(=O)c2cc(-c3ccccc3F)no2)CC1 | inconclusive: 18.5 µM [inhibitor, single point]
O=C(Nc1cccc(S(=O)(=O)N2CCCCC2)c1)C1CC(=O)N(Cc2ccco2)C1 (stereo not given) | inconclusive: 10.4 µM [inhibitor, single point]
Cc1sc(NC(=O)CSc2nnc(CCNC(=O)c3cccs3)n2C)nc1-c1ccccc1 | inconclusive: 11.7 µM [inhibitor, partial curve]
CCN(CC(=O)NC(C)(C)C)C(=O)CCl | inconclusive: 16.5 µM [inhibitor, single point]
Cc1[nH]c(C)c(S(=O)(=O)N(Cc2ccccc2)C(C)C)c1C(=O)N1CCCC1 | inconclusive: 18.5 µM [inhibitor, single point]

SMILES | Potency
O=C(O)c1ccc(S(=O)(=O)N2CCC(n3nnc4cc(C(F)(F)F)ccc43)CC2)cc1 | inconclusive: 1.85 µM [inhibitor, partial curve, poor fit]
COc1ccc(Cc2nnc(NC(=O)c3cccc(F)c3)s2)cc1OC | inactive
O=C(Nc1ncc2c(n1)-c1ccccc1CC2)c1cccs1 | inconclusive: 7.38 µM [inhibitor, partial curve, poor fit]
Cc1ccc(C(=O)N/C(=C/c2ccco2)C(=O)Nc2cccc(C(=O)O)c2)cc1 | inconclusive: 18.5 µM [inhibitor, partial curve, poor fit]
CCCCS(=O)Cc1ccccc1 (stereo not given) | inactive
COc1ccccc1-c1ccc(NC2CCCC2)nn1 | inconclusive: 9.28 µM [inhibitor, single point]
Cn1c(SCC(=O)NCc2cccs2)nnc1-c1cccs1 | inactive
COC(=O)C1=C(c2cccc(OCc3ccccc3)c2)C[C@@H]2CC[C@H]1N2C(=O)NCc1ccc(C(F)(F)F)cc1 | active: 5.22 µM
O=C(CCCN1C(=O)S/C(=C/C=C/c2ccccc2)C1=O)Nc1ccc(C(=O)O)cc1 | inconclusive: 11.7 µM [inhibitor, single point]
CCOC(=O)c1sc(-c2cccs2)nc1C | inactive
CCn1nc(NC(=O)C(C)(C)C)c2cc3cccc(C)c3nc21 | inconclusive: 20.8 µM [inhibitor, partial curve, poor fit]
COc1ccc(CCNC(=O)c2c(N)n(CCN3CCOCC3)c3nc4ccccc4nc23)cc1OC | active: 4.65 µM
O=C(COc1ccccc1)OCc1cc(-c2ccco2)on1 | inactive
COc1nnc(-c2ccc(C(=O)N3C[C@@H]4C[C@H](C3)c3cccc(=O)n3C4)cc2)c2ccccc12 | active: 2.62 µM
O=C(CSc1nc2ccccc2n1Cc1ccccc1)N/N=C/c1ccco1 | inconclusive: 18.5 µM [inhibitor, single point]
Cc1oc(C(C)(C)C)cc1C(=O)N1CCN(c2ccc(C(F)(F)F)cn2)CC1 | inconclusive: 18.5 µM [inhibitor, single point]
Cc1ccc(N(CC(=O)NCC2CCCO2)C(=O)CCC(=O)Nc2ccccn2)cc1 (stereo not given) | active: 0.586 µM
NC(=O)CC(NC(=O)Cc1cccc2ccccc12)c1ccc(NCCOc2ccccc2)c([N+](=O)[O-])c1 (stereo not given) | inconclusive: 10.4 µM [inhibitor, partial curve]
Cn1c(CSCc2ccc(F)cc2)n[nH]c1=S | active: 13.1 µM
Cc1cccc(OCC(=O)NNC(=O)c2ccccc2OCc2c(C)noc2C)c1 | inconclusive: 18.5 µM [inhibitor, single point]
O=C1C(=O)N(Cc2ccccc2)C(c2cccc(O)c2)/C1=C(\O)c1ccc2c(c1)OCCO2 (stereo not given) | inactive
O=C(CCCc1nc(-c2ccc(Cl)cc2)no1)Nc1cccnc1 | inactive

3 records picked at random from those above:
SMILES | Potency
O=C(NN1CCOCC1)c1ccccc1Br | inconclusive: 4.15 µM [inhibitor, single point]
COc1ccc2cc(/C=N/NC(=O)c3ccc(CN(c4cccc(Cl)c4Cl)S(C)(=O)=O)cc3)c(Cl)nc2c1 | inconclusive: 18.5 µM [inhibitor, partial curve, poor fit]
O=C(Nc1cccc(S(=O)(=O)N2CCCCC2)c1)C1CC(=O)N(Cc2ccco2)C1 (stereo not given) | inconclusive: 10.4 µM [inhibitor, single point]
